From PubChem BioAssay AID1688 (National Center for Advancing Translational Sciences (NCATS), 2009)
Hit rate of the full screen: of about 220,000 compounds, about 2,400 (1.1%) were called active. The inconclusive results got no clear call from the source; some entries with a clear call stand among them for comparison. Calls come from the whole dose curve; as a rule, active = well fitted inhibition curve with a large enough effect; inconclusive = small, poorly fitted or top-dose-only effect, or effect the other way; inactive = no such curve, though single readings can be large or run the other way. A potency beside an inconclusive call is a rough fit, not a confirmed value.

assay: qHTS Multiplex Assay to Identify Dual Action Probes in a Cell Model of Huntington: Aggregate Formation (GFP); conditions: PC12 HttQ103-GFP aggregates, Acumen cytometry, 40 h; activity change, negative = inhibition: at 46.1 µM (top of the series) unless noted; note: nearly all actives have a fitted effect of over 60% in size
Summary of the method: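 Compounds (qHTS titration) were added to PC12 cells expressing an ecdysone-driven HTT exon 1 Q103–GFP fusion after induction with 100 nM tebufenozide. Aggregate formation was measured as GFP objects in cell lysates.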
% is set by controls: 0 for no effect and ±100 for the full control effect; potency is the fitted concentration of half-maximal effect.

Row | Structure (SMILES) | Potency | activity change, negative = inhibition
1 | CC1CCN(c2nnc(-c3ccccc3)c3ccccc23)CC1 | inconclusive: 31.6 µM [inhibitor, single point] | 
2 | NS(=O)(=O)c1ccc(N/N=C2/CCCCC2C2CCCCC2)c([N+](=O)[O-])c1 (stereo not given) | inconclusive: 35.5 µM [inhibitor, single point] | 
3 | CCOc1ccccc1Nc1ncccc1C(=O)O | inconclusive: 1 µM [activator, full curve] | 
4 | O=C(O)c1cnn(-c2ccccc2)c1-n1cccc1 | inactive | 
5 | COc1ccc(OC)c(NC(=O)COC(=O)c2ccc(-n3cnnn3)cc2)c1 | inactive | 
6 | Cc1ccc(Nc2cc(C)nc3ncnn23)c(Cl)c1 | inconclusive: 22.4 µM [activator, partial curve] | 
7 | CNC(=S)/N=C/NOCc1c(Cl)cccc1Cl | inconclusive: 35.5 µM [inhibitor, single point] | 
8 | COC(=O)CCC(=O)N1CN2CN(C(=O)CCC(=O)OC)CC([N+](=O)[O-])(C2)C1 |  | inactive: -4.35% [at 9.22 µM]
9 | O=C(Nc1ccc(N2CCN(C(=O)c3ccc(Cl)cc3)CC2)cc1)c1ccc(Br)o1 | inconclusive: 35.5 µM [inhibitor, single point] | 
10 | CC(NCc1ccc(N(C)C)cc1)C1CC2CCC1C2 (stereo not given) | inactive | 
11 | C/C(=N\NC(=O)c1ccc(-c2ccccc2)cc1)c1cccc(N)c1 |  | inactive: -5.28% [at 9.22 µM]
12 | COc1cc(NS(=O)(=O)c2ccc(NC(=O)COc3ccccc3C)cc2)nc(OC)n1 | inactive | 
13 | COc1ccc(CN(C(=S)Nc2ccccc2)C2CC(=O)N(c3ccc(F)cc3)C2=O)cc1 (stereo not given) | inconclusive: 3.98 µM [activator, single point] | 
14 | CC(=O)c1ccc(N2CCN(C(=S)Nc3ccc(Oc4ccccc4)cc3)CC2)cc1 | active: 12.6 µM | 
15 | CN(C)C(=O)c1cc(Cl)ccc1Sc1cc(Cl)ccc1Cl | inconclusive: 1.26 µM [inhibitor, single point] | 
16 | CN(C)S(=O)(=O)c1ccc(NC(=O)CSc2ncnc3ccccc23)cc1 | inconclusive: 35.5 µM [activator, single point] | 
17 | C=C(C)COc1ccc2c(C)c(CC(=O)OC)c(=O)oc2c1C | active: 11.2 µM | 
18 | Cc1cc(=O)oc2cc(Oc3ccc([N+](=O)[O-])cc3[N+](=O)[O-])ccc12 | inconclusive: 22.4 µM [inhibitor, single point] | 
19 | COc1cc2c(cc1OC)C(C)N(C(=O)c1cc3c(s1)-c1ccccc1OC3)CC2 (stereo not given) | inconclusive: 5.62 µM [inhibitor, single point] | 
20 | COc1cccc(CNC(=O)Cc2ccc(Br)cc2)c1 | inactive | 

Single values from above:
COc1cccc(CNC(=O)Cc2ccc(Br)cc2)c1 – Potency: inactive
CC1CCN(c2nnc(-c3ccccc3)c3ccccc23)CC1 – Potency: inconclusive: 31.6 µM [inhibitor, single point]
